Test results reported in the supplement of paper PMC6078165.
The reference is the same well before dosing, and untreated signal decays as well.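 Labels refer to human fibroblasts, largely primary: uterine (C12385, HUF), lung (H6013), bone (Hs27A), adrenal (HADF), skin (WS1), plus mammary HMF and breast cancer-associated Hs343T. Cancer lines are basal-like or mesenchymal-like triple-negative breast cancer. The paper counts as hits responses shifting over 3x the replicate standard deviation. The tissue of the other fibroblasts is not given here.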

Tested on: MDAMB231
Assay: relative JC-1 red fluorescence (viability) vs pre-drug, coculture with fibroblast (fraction); higher = more viable cancer cells
Procedure: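 JC-1 labelled TNBC cells cocultured 1:1 (1,500 cells each) with CellTrace Violet stained primary or stromal fibroblasts in 384-well plates in FluoroBrite medium, treated with one of 42 anticancer drugs at 0.1, 1, 10 or 100 uM. JC-1 red fluorescence (mitochondrial integrity in cancer cells only) was read by plate reader every 8 h for 72 h. Values are normalised to each well's pre-drug value. The stock of one drug was tenfold lower, so its dose labels may be too high.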

CO[C@H]1C[C@@H]2CC[C@@H](C)[C@@](O)(O2)C(=O)C(=O)N2CCCC[C@H]2C(=O)O[C@H]([C@H](C)C[C@@H]2CC[C@@H](OCCO)[C@H](OC)C2)CC(=O)[C@H](C)/C=C(\C)[C@@H](O)[C@@H](OC)C(=O)[C@H](C)C[C@H](C)/C=C/C=C/C=C/1C [Everolimus]
relative JC-1 red fluorescence
Settings	8 h	16 h	24 h	32 h	40 h	48 h	56 h	64 h	72 h
10 µM, coculture fibroblast: C12385	0.782	0.849	0.7082	0.838	0.829	0.81	0.781	0.778	0.75
10 µM, coculture fibroblast: H6013	0.9699	0.98	0.952	0.9714	0.9578	0.9121	0.9429	0.917	0.888
10 µM, coculture fibroblast: H6019	0.838	0.864	0.744	0.847	0.837	0.829	0.7981	0.781	0.758
10 µM, coculture fibroblast: H6076	0.857	0.84	0.929	0.871	0.954	0.923	0.908	0.9856	0.9828
10 µM, coculture fibroblast: H6231	0.868	0.829	0.867	0.825	0.954	0.935	0.916	0.9242	0.95
10 µM, coculture fibroblast: HADF	0.958	0.919	0.965	0.854	0.96	0.911	0.929	0.918	0.879
10 µM, coculture fibroblast: HCFa	0.967	0.97	0.9683	0.966	0.938	0.892	0.902	0.8812	0.8615
10 µM, coculture fibroblast: HCPF	0.956	0.859	0.905	0.921	0.931	0.947	0.93	0.904	0.879
10 µM, coculture fibroblast: HHSteC	0.968	0.982	0.951	0.931	0.905	0.866	0.862	0.849	0.817
10 µM, coculture fibroblast: HMF	0.912	0.894	0.906	0.846	0.913	0.943	0.92	0.901	0.884
10 µM, coculture fibroblast: HPFa	0.91	0.86364	0.867	0.936	0.943	0.878	0.954	0.851	0.919
10 µM, coculture fibroblast: HUF	0.872	0.877	0.914	0.866	0.84	0.825	0.801	0.798	0.781
10 µM, coculture fibroblast: Hs5	0.842	0.876	0.866	0.76	0.963	0.964	0.929	0.9	0.886
10 µM, coculture fibroblast: Hs27A	0.938	0.927	0.914	0.927	0.8983	0.795	0.86	0.8557	0.8188
10 µM, coculture fibroblast: Hs343T	0.945	0.844	0.728	0.881	0.901	0.885	0.834	0.893	0.958
10 µM, coculture fibroblast: WS1	0.831	0.805	0.802	0.861	0.782	0.7785	0.852	0.833	0.802
100 µM, coculture fibroblast: C12385	0.69	0.765	0.515	0.4942	0.246	0.195	0.188	0.219	0.231
100 µM, coculture fibroblast: H6013	0.789	0.801	0.878	0.875	0.68	0.523	0.47	0.449	0.446
100 µM, coculture fibroblast: H6019	0.805	0.787	0.606	0.463	0.342	0.288	0.277	0.32	0.326
100 µM, coculture fibroblast: H6076	0.855	0.812	0.523	0.468	0.426	0.424	0.458	0.485	0.518
100 µM, coculture fibroblast: H6231	0.955	0.921	0.896	0.877	0.853	0.824	0.792	0.781	0.763
100 µM, coculture fibroblast: HADF	0.93315	0.901	0.78	0.585	0.429	0.345	0.305	0.289	0.284
100 µM, coculture fibroblast: HCFa	0.963	0.897	0.864	0.752	0.607	0.444	0.386	0.317	0.306
100 µM, coculture fibroblast: HCPF	0.847	0.737	0.61	0.578	0.556	0.542	0.538	0.534	0.544
100 µM, coculture fibroblast: HHSteC	0.871	0.768	0.811	0.699	0.531	0.426	0.37	0.3793	0.388
100 µM, coculture fibroblast: HMF	0.923	0.841	0.605	0.463	0.422	0.41	0.422	0.441	0.455
100 µM, coculture fibroblast: HPFa	0.8015	0.833	0.856	0.686	0.551	0.457	0.3731	0.355	0.359
100 µM, coculture fibroblast: HUF	0.833	0.814	0.784	0.594	0.501	0.504	0.503	0.551	0.56
100 µM, coculture fibroblast: Hs5	0.8721	0.802	0.587	0.53	0.532	0.53969	0.575	0.589	0.593
100 µM, coculture fibroblast: Hs27A	0.9326	0.908	0.823	0.804	0.722	0.575	0.537	0.454	0.377
100 µM, coculture fibroblast: Hs343T	0.883	0.8177	0.512	0.445	0.409	0.399	0.415	0.433	0.4439
100 µM, coculture fibroblast: WS1	0.6881	0.667	0.439	0.34	0.237	0.2	0.206	0.247	0.259
